Results on eleven targets are retold here after the supplement of paper PMC6411743.

Protein sequences, listed by entry. Tags and fused reporters are not part of them. Lines headed by an entry give the natural chain unless they say otherwise; changes in a name come on top.
UniProt Q8TEQ0: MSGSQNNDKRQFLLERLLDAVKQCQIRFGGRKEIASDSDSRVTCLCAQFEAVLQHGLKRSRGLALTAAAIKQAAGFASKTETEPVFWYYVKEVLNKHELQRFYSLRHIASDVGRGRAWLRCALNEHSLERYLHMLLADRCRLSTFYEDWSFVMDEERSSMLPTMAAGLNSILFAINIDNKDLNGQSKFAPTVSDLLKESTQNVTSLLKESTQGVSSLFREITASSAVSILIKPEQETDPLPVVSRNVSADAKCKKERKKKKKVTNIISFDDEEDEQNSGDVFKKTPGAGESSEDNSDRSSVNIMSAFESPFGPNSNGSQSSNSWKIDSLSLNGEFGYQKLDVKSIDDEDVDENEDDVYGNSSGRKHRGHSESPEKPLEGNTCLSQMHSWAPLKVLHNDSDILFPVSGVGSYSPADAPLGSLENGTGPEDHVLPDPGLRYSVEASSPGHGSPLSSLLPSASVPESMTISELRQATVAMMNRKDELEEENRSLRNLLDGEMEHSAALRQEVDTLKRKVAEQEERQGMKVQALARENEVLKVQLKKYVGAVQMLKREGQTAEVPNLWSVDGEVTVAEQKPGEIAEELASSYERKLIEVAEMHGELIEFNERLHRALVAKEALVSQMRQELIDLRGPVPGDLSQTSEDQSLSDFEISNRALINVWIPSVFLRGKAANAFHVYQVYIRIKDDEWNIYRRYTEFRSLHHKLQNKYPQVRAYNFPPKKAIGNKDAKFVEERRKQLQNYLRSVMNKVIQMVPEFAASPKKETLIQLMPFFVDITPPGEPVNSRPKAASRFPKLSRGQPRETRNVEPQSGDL
UniProt Q96BJ3: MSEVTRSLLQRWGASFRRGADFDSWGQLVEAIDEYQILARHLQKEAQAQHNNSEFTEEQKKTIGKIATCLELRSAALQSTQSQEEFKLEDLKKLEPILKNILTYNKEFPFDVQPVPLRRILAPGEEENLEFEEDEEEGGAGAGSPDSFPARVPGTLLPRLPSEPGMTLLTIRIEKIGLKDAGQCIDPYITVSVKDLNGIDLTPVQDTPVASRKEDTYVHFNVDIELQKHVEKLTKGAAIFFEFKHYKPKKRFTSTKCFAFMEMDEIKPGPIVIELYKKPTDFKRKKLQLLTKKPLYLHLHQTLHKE
UniProt Q8TD30: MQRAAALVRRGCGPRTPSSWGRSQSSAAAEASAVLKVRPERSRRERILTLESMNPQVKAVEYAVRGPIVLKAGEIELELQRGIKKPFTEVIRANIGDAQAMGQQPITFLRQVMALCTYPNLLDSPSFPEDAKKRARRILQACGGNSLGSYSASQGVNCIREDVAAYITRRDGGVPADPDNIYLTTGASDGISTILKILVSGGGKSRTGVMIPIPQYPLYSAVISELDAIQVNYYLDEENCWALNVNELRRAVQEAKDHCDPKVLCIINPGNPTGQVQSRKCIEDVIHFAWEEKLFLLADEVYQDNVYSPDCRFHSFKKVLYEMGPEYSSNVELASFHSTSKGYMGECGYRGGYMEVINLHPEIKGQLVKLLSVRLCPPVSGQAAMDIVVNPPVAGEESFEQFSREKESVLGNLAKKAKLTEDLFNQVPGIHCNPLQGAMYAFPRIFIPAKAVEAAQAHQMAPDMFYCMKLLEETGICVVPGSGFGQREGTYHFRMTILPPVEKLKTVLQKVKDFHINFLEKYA
UniProt Q92599: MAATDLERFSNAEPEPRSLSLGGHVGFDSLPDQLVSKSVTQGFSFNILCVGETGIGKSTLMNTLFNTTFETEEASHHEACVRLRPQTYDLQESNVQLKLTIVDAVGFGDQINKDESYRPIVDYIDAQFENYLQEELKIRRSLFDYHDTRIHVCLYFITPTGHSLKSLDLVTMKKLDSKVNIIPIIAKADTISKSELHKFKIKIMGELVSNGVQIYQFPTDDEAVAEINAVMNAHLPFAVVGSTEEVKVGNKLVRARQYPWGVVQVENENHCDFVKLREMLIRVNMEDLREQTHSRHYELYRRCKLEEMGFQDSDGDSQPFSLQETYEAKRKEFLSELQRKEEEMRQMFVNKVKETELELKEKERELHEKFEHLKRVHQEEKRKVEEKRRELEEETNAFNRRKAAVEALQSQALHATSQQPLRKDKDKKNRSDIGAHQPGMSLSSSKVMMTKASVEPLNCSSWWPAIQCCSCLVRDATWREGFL
UniProt Q92673: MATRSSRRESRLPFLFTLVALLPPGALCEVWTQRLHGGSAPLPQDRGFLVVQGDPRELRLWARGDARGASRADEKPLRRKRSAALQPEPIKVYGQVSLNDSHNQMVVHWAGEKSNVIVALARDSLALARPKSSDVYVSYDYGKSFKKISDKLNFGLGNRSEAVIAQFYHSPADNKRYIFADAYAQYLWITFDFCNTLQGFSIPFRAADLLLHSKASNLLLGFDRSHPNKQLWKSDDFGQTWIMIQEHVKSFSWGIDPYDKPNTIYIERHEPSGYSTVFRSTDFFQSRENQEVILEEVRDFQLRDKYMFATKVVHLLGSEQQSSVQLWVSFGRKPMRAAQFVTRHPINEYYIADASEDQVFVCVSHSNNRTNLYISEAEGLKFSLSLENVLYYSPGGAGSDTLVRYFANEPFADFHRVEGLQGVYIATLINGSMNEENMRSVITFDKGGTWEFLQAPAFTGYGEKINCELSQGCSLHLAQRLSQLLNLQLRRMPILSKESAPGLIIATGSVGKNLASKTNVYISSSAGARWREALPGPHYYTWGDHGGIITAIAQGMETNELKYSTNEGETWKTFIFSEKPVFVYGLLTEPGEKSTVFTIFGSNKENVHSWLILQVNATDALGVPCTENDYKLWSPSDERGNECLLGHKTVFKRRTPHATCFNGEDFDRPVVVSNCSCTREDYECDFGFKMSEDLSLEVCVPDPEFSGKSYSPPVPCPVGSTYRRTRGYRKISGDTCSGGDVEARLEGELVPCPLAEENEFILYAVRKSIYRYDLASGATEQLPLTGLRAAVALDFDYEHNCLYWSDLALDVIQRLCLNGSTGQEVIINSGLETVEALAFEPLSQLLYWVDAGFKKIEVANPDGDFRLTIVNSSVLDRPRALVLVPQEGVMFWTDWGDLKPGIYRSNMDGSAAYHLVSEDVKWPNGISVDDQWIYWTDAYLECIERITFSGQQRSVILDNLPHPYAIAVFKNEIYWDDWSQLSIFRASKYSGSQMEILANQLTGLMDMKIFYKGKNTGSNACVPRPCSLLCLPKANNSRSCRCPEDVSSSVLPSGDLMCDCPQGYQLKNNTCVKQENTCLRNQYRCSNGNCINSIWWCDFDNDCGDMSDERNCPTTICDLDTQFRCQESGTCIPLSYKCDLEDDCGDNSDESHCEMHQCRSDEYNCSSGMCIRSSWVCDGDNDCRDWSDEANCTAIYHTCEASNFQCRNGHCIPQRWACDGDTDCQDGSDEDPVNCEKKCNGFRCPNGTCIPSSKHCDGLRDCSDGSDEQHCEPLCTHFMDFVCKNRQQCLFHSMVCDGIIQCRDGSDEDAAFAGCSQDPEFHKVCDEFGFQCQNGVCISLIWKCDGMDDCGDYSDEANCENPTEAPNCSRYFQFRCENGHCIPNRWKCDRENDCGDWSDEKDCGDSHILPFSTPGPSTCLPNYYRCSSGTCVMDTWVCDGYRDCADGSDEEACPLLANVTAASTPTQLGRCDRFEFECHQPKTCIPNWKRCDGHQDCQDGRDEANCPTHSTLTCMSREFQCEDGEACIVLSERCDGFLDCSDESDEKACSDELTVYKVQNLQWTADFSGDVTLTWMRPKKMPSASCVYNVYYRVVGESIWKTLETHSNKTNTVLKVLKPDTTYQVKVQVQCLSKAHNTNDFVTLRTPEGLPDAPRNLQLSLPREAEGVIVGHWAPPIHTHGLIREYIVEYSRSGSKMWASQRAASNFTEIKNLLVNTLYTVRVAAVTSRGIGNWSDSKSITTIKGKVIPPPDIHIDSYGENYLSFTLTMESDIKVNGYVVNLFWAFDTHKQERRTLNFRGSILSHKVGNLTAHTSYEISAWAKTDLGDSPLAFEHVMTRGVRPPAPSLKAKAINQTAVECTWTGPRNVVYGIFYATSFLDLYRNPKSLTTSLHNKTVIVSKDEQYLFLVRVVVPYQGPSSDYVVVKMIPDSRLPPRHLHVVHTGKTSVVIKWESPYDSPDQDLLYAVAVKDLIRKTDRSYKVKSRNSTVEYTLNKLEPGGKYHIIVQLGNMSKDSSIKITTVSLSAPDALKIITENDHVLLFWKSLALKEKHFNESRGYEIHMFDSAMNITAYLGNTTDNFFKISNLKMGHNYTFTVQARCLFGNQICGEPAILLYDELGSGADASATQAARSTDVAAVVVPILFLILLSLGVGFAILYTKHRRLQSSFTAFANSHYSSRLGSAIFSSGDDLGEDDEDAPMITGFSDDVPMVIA
UniProt Q96AQ8: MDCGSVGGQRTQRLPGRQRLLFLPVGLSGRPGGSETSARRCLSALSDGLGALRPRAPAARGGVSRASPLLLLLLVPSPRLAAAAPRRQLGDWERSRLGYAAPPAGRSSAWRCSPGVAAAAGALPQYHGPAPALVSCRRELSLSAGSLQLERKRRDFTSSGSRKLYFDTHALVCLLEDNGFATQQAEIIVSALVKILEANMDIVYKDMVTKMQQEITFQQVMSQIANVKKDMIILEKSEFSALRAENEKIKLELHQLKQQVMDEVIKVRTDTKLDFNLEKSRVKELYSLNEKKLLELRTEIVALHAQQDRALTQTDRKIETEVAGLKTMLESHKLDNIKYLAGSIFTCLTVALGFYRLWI
UniProt Q92747, whole entry: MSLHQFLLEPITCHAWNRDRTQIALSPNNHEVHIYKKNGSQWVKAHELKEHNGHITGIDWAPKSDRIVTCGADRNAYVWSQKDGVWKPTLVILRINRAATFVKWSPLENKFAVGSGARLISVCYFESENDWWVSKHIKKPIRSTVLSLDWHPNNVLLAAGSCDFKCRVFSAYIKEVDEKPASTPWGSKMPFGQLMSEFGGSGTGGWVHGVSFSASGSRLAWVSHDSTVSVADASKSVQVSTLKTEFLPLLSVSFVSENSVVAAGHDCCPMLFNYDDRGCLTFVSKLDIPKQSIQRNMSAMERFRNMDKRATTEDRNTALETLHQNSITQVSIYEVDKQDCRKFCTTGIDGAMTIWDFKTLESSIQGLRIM
UniProt Q8TBC4: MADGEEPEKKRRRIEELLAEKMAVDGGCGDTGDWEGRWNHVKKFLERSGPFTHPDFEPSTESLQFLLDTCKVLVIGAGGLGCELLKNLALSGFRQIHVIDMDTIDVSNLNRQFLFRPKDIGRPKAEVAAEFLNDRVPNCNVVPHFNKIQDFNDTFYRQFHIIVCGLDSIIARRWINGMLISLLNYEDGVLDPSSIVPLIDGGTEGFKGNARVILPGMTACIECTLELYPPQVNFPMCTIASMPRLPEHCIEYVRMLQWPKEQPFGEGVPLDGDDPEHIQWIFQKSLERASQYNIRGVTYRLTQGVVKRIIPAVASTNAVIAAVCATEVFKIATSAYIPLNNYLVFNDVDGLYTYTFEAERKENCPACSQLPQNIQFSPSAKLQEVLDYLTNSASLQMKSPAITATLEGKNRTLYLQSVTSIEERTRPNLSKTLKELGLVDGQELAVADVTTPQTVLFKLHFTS

± gives the standard deviation of the averaged measurements. Only a part is listed here, and it is no random draw.

Compound in the assay: Nc1ncnc2c1ncn2[C@@H]1O[C@H](COP(=O)(O)OP(=O)(O)OP(=O)(O)O)[C@@H](O)[C@H]1O [adenosine triphosphate]
Kind of assay: NP40-soluble protein abundance relative to vehicle (solubility fold change) (ratio); higher = more soluble protein in presence of ATP. Summed up:
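In three independent experiments, Jurkat crude lysate made by Dounce homogenisation was treated for 10 min at room temperature and then 3 min at 37 °C with eight concentrations ranging from 0.1 to 10 mM. It was then solubilised with 0.8% NP40 plus benzonase for 60 min at 4 °C and ultracentrifuged. The supernatant was TMT-labelled for LC-MS/MS, and each value is the fold change against the detergent-processed vehicle for the same replicate, using vsn-normalised intensities.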

In the case of UniProt Q8TEQ0 and related entries, the NP40-soluble protein abundance is, setting by setting: (concentration: 1mM) 0.977 ± 0.038; (concentration: 2mM) 1.04 ± 0.025; (concentration: 4mM) 1.01 ± 0.018; (concentration: 6mM) 1 ± 0.039; (concentration: 8mM) 0.987 ± 0.048; (concentration: 10mM) 1 ± 0.069.

For UniProt Q8TBF2-6|A0A0A0MT35|Q8TBF2-8, the NP40-soluble protein abundance runs as follows: (concentration: 1mM) 1 ± 0.056; (concentration: 2mM) 0.982 ± 0.068; (concentration: 4mM) 1.01 ± 0.03; (concentration: 6mM) 0.922 ± 0.062; (concentration: 8mM) 0.976 ± 0.063; (concentration: 10mM) 0.986 ± 0.025.

As for AIDA (UniProt Q96BJ3), the NP40-soluble protein abundance reads like this: (concentration: 1mM) 1 ± 0.035; (concentration: 2mM) 1.03 ± 0.038; (concentration: 4mM) 1.01 ± 0.07; (concentration: 6mM) 1.03 ± 0.015; (concentration: 8mM) 0.983 ± 0.028; (concentration: 10mM) 0.992 ± 0.06.

For GPT2 (UniProt Q8TD30), the NP40-soluble protein abundance reads like this: (concentration: 1mM) 1.02 ± 0.072; (concentration: 2mM) 1.02 ± 0.017; (concentration: 4mM) 0.949 ± 0.051; (concentration: 6mM) 0.951 ± 0.11; (concentration: 8mM) 0.929 ± 0.042; (concentration: 10mM) 0.97 ± 0.032.

Consider UniProt Q92599, for which the NP40-soluble protein abundance by setting is: (concentration: 1mM) 1.07 ± 0.13; (concentration: 2mM) 1.02 ± 0.14; (concentration: 4mM) 0.996 ± 0.067; (concentration: 6mM) 1.02 ± 0.17; (concentration: 8mM) 1.02 ± 0.078; (concentration: 10mM) 0.958 ± 0.052.

Turning to SORL1 (UniProt Q92673), the NP40-soluble protein abundance stood at 0.964 ± 0.031 (concentration: 1mM); 0.971 ± 0.023 (concentration: 2mM); 0.949 ± 0.028 (concentration: 4mM); 0.968 ± 0.024 (concentration: 6mM); 0.927 ± 0.046 (concentration: 8mM); 0.935 ± 0.029 (concentration: 10mM).

For UniProt Q96AQ8, the NP40-soluble protein abundance is, setting by setting: (concentration: 1mM) 0.987 ± 0.0055; (concentration: 2mM) 0.96 ± 0.021; (concentration: 4mM) 0.979 ± 0.036; (concentration: 6mM) 0.977 ± 0.019; (concentration: 8mM) 0.994 ± 0.043; (concentration: 10mM) 0.929 ± 0.11.

Turning to UniProt Q92538 and related entries, the NP40-soluble protein abundance worked out at 0.976 ± 0.045 (concentration: 1mM); 0.944 ± 0.018 (concentration: 2mM); 0.93 ± 0.028 (concentration: 4mM); 0.929 ± 0.0095 (concentration: 6mM); 0.937 ± 0.037 (concentration: 8mM); 0.923 ± 0.0097 (concentration: 10mM).

With UniProt Q96AE7-2|Q96AE7, the NP40-soluble protein abundance (concentration: 1mM) is 1.05 ± 0.2; the NP40-soluble protein abundance (concentration: 2mM) worked out at 0.986 ± 0.16; the NP40-soluble protein abundance (concentration: 4mM) came to 0.994 ± 0.18; the NP40-soluble protein abundance (concentration: 6mM) worked out at 1.05 ± 0.14; the NP40-soluble protein abundance (concentration: 8mM) was determined as 1.02 ± 0.15; the NP40-soluble protein abundance (concentration: 10mM) is 0.981 ± 0.22.

For the target ARPC1A (UniProt Q92747), the NP40-soluble protein abundance (concentration: 1mM) is 1.01 ± 0.15; the NP40-soluble protein abundance (concentration: 2mM) turned out to be 1.05 ± 0.12; the NP40-soluble protein abundance (concentration: 4mM) came to 1.05 ± 0.1; the NP40-soluble protein abundance (concentration: 6mM) stood at 0.939 ± 0.11; the NP40-soluble protein abundance (concentration: 8mM) turned out to be 1.01 ± 0.038; the NP40-soluble protein abundance (concentration: 10mM) came out at 1.03 ± 0.038.

In the case of UBA3 (UniProt Q8TBC4), the NP40-soluble protein abundance (concentration: 1mM) was found to be 0.996 ± 0.11; the NP40-soluble protein abundance (concentration: 2mM) came to 1 ± 0.089; the NP40-soluble protein abundance (concentration: 4mM) is 1 ± 0.094; the NP40-soluble protein abundance (concentration: 6mM) turned out to be 0.965 ± 0.099; the NP40-soluble protein abundance (concentration: 8mM) came out at 0.986 ± 0.091; the NP40-soluble protein abundance (concentration: 10mM) was 0.994 ± 0.079.
